Source: article PMC8377850
Results are given in words; binding and its absence hold for the method and conditions named. Binding seen in cells or lysates may run through a third protein. Some binding calls cover weakened binding; strength is not graded here. For part of these data: Where a sequence is shown, tags or fusion partners need not be part of it.

Amino acid sequences for entries named in this document (tags omitted).
UniProt P51114: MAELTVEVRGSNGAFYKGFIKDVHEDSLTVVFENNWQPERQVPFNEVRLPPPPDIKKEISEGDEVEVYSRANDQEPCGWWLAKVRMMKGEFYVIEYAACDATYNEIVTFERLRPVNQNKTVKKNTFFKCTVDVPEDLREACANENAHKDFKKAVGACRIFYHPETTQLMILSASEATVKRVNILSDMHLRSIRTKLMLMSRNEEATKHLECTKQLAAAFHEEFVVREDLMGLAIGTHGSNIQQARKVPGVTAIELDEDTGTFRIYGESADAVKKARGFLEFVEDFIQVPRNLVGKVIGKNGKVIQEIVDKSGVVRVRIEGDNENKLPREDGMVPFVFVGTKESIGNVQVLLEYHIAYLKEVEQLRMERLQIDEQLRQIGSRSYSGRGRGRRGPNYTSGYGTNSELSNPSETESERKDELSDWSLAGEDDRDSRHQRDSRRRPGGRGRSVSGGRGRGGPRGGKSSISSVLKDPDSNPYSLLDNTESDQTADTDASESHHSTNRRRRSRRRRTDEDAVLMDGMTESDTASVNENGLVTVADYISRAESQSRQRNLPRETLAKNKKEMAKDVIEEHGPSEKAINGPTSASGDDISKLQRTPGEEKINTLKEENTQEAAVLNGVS

How the values were obtained:
[1] = target: T1, myc-tagged PKP3ΔC (aa 1–515), lacking repeat domains at its C-terminus (human) (UniProt Q9Y446); assay: co-IP; extracts of cells transfected with myc-tagged full-length PKP3 or PKP3ΔC; IP with anti-myc antibody; western blot for coprecipitated endogenous FXR1
T1 sequence: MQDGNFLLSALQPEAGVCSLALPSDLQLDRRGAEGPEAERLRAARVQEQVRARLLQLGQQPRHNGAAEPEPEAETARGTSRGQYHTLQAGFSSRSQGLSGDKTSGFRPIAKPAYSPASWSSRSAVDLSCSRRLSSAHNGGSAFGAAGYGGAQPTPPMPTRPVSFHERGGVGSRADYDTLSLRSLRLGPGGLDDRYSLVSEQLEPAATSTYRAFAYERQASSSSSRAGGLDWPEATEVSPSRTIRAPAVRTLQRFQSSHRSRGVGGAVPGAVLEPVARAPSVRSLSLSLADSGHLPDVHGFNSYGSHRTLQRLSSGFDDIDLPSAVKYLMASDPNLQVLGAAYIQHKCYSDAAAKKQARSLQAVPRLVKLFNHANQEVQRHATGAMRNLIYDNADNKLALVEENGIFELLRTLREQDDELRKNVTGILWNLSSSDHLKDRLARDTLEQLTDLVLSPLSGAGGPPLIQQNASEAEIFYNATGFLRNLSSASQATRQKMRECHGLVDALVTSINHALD

[2] = target: T2, myc-tagged full-length PKP3 (human) (UniProt Q9Y446); assay: as above
T2 sequence: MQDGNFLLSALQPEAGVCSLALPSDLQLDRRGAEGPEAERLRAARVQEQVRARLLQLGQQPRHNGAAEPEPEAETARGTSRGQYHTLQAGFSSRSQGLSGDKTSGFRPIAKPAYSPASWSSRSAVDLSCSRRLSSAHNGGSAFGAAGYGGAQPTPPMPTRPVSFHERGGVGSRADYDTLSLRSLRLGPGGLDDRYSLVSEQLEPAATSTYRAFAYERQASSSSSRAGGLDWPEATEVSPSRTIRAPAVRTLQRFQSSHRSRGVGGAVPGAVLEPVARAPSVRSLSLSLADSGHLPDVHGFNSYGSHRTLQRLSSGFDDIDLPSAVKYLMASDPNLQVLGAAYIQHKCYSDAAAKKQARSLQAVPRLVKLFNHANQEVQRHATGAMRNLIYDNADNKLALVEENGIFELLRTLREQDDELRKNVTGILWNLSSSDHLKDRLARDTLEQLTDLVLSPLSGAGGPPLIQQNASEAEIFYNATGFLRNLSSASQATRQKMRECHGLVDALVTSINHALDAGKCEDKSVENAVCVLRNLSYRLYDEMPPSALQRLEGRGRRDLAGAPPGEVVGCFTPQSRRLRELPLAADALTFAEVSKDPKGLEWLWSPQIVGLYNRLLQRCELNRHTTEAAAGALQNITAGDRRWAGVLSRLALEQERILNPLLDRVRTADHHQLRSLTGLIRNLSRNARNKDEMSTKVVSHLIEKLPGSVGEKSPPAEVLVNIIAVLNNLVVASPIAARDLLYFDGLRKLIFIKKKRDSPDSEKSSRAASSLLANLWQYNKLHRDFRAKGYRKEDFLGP

[3] = target: T3, plakophilin 3 (PKP3), endogenous (human (endogenous in A549)) (UniProt Q9Y446); assay: co-IP; A549 cell extracts (RIPA lysis buffer) precleared with protein A-agarose; IP with anti-PKP3 antibody 1 h at 4 °C, protein A/G overnight; western blot for FXR1; rabbit IgG isotype as negative control
T3 sequence: T2 sequence

binding [1]: binds
binding [2]: binds
binding [3]: binds
Substance: fragile X mental retardation syndrome-related protein 1 (FXR1), endogenous (from UniProt P51114 1-621)
